Measurements reported in PubChem BioAssay AID1259424 (University of Nebraska Medical Center, 2018)
Shown is an unselected part of about 14,000 reagents. 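Higher correlation or smaller distance means closer resemblance to KSR1 loss; control wells, including KSR1 knockdowns, recur on many plates.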 Not all columns of the deposit are shown. Not stated in the record: the time to read-out.

Test: 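Seek colon cancer survival genes behaving like KSR1, using a six-gene signature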 (primary screen)
Cells: human HCT116 colon cancer cells
Reagents: siRNA pool against human genes, 50 nM
Measurement: 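Log2 levels of six mRNAs (branched-DNA multiplex), adjusted by two reference genes and the non-targeting median, then scored against the average KSR1 knockdown pattern as Pearson r and euclidean distance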
Direction: mean correlation with KSR1 profile and KSR1 correlation: higher = expression change more like KSR1 knockdown; mean distance from KSR1 profile: higher = expression change less like KSR1 knockdown

Gene	mean correlation with KSR1 profile	mean distance from KSR1 profile	KSR1 correlation, replicate 1	KSR1 correlation, replicate 2
MAB21L4	0.0604	1.98	0.0852	0.214
PLLP	-0.802	3.83	-0.49	-0.531
ABCF3	-0.0562	3.46	-0.18	0.102
ABHD12	0.105	2.1	0.273	0.0243
ARHGAP9	-0.558	3.77	-0.439	-0.578
ZRANB1	-0.119	2.25	-0.128	-0.0508
SRM	0.0368	3.21	0.0206	0.048
PLS3	-0.301	1.72	-0.0187	-0.387
LHX9	-0.442	1.95	-0.444	-0.251
CBR3	-0.636	2.09	-0.697	-0.64
RRP15	-0.363	3.15	-0.231	-0.282

A portion from the list above, for reference:
Gene	mean correlation with KSR1 profile	mean distance from KSR1 profile	KSR1 correlation, replicate 1	KSR1 correlation, replicate 2
ARHGAP9	-0.558	3.77	-0.439	-0.578
ZRANB1	-0.119	2.25	-0.128	-0.0508

The listing continues.
Gene	mean correlation with KSR1 profile	mean distance from KSR1 profile	KSR1 correlation, replicate 1	KSR1 correlation, replicate 2
FSTL1	0.16	1.73	0.235	0.236
FHL1	0.0977	1.07	-0.122	-0.354
RPUSD2	-0.396	2.78	-0.571	-0.52
SURF2	-0.13	2.7	-0.163	-0.177
FLRT2	-0.412	1.68	-0.158	-0.434
RPF2	0.0409	2.52	0.0261	-0.0863
NDRG4	0.244	3.88	0.607	-0.0136
RGS19	0.957	1.17	0.957	0.958
TNNI1	0.605	1.51	0.659	0.451
